# Reference: paper PMC7819943, “Rice protein-binding microarrays: a tool to detect cis-acting elements near promoter regions in rice”
# The other results are listed elsewhere or left out.
# Target: T1, OsSMF1 (Oryza sativa, UniProt Q6ZLB0 1-436)
# T1 sequence: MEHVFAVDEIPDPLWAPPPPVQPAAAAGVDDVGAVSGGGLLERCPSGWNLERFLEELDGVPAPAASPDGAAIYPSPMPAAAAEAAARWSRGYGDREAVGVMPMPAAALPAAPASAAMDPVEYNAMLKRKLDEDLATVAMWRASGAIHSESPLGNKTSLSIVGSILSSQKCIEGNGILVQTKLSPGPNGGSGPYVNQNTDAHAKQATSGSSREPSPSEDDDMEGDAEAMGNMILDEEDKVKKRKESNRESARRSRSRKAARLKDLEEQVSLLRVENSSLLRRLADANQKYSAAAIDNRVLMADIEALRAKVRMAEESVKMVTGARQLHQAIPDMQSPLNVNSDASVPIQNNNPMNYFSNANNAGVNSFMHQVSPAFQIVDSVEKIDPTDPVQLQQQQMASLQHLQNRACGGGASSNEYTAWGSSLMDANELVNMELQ
# Assay: protein-binding microarray (RPBM); PBS, 2% BSA, 51.3 ng/ul salmon testes DNA, 50 uM zinc acetate, 200 nM TF, 25 C, 1 h; high values mean tight binding
# Settings: protein: recombinant; tags: N-terminal polyhistidine and DsRed monomer fusion (pET32a); chain copies: 2; label: CyDye5-dUTP incorporated in the synthesized complementary strand; 3' TTTTT single-stranded linker to array surface; dsDNA, one strand shown
# How it was run: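 The binding signal is fluorescence intensity per feature, in arbitrary units, read on an Axon 4000B scanner. Polyhistidine- and DsRed-tagged transcription factors (N-terminal fusions) from E. coli BL21-CodonPlus were purified on Ni–NTA and applied at 200 nM for 1 h at 25 °C to a double-stranded, BSA-blocked custom Agilent array in buffer with 50 µM zinc acetate.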
row,Sequence,binding signal
1,AACCGACAATCCGCCGCGATGCGCTGGCGTTGCCTTGCCCCGGAGTCACCTAGTGCAG,7010 fluorescence intensity (a.u.)
2,CCGGGTGTCCCGTTGTCAGTACGTGGGAGGCGGTTACCCCCGGAGTCACCTAGTGCAG,4050 fluorescence intensity (a.u.)
3,AGCAGAAGCGAATGCATACTAACCCTTGCCAGGTGATTGGCGGAGTCACCTAGTGCAG,3140 fluorescence intensity (a.u.)
4,TGAAGCAGTGATGCATGCGTGACAAAGATTGAGATTTGATCGGAGTCACCTAGTGCAG,3640 fluorescence intensity (a.u.)
5,GCACCTTGAATGAATTATCTAGCAAAGCCAGCGTAGACGTCGGAGTCACCTAGTGCAG,30200 fluorescence intensity (a.u.)
6,CCCACACAACCAAGCCGCCGTCCGTTGTAAACTAATACGGCGGAGTCACCTAGTGCAG,19100 fluorescence intensity (a.u.)
7,TGTATTGACTTGTTTGTCACGGTTTGAGCATTTGCACCTGCGGAGTCACCTAGTGCAG,4310 fluorescence intensity (a.u.)
8,CCACACGTACGTAACGTATACGTACGTACAACGTATATCTCGGAGTCACCTAGTGCAG,5090 fluorescence intensity (a.u.)
9,CCGTCGCCGTCGGCACCGCCGCCGGAGCTCCTCCCTGCTCCGGAGTCACCTAGTGCAG,3220 fluorescence intensity (a.u.)
10,TAAAGCTCATTGGTTCATTTTGATTCTGCATCACCATTTGCGGAGTCACCTAGTGCAG,32600 fluorescence intensity (a.u.)
11,TAAGGAAAGGAAAGGAAAGGAAAGGAAACGGCCTCCACTCCGGAGTCACCTAGTGCAG,5320 fluorescence intensity (a.u.)
12,GGACACCCGCTCCGCGTCGCGCGCACGCTAGAAGAACTCCCGGAGTCACCTAGTGCAG,3140 fluorescence intensity (a.u.)
13,TACTTTAAATGTGTGTCCGTATATCCGATGTGACACGCCACGGAGTCACCTAGTGCAG,3870 fluorescence intensity (a.u.)
14,GCTGCATGTATTTTCAACCGTTAATTCGGATGACCAATAGCGGAGTCACCTAGTGCAG,25700 fluorescence intensity (a.u.)
15,CTCCTCTTGACATCACCCTACTTCCATATGCTGGCTTTAACGGAGTCACCTAGTGCAG,4320 fluorescence intensity (a.u.)
16,CCCCTTCCTAGCAGATTCGCATCGAATCCCGATCTGAGCTCGGAGTCACCTAGTGCAG,19600 fluorescence intensity (a.u.)
17,AATCATAAGTAAAGCAAGGATTTGACACGTCGAGGAGCGCCGGAGTCACCTAGTGCAG,4150 fluorescence intensity (a.u.)
18,TCAGAAAAGTATTGACTCACCATCACTTGGCATGAAGAAGCGGAGTCACCTAGTGCAG,3880 fluorescence intensity (a.u.)
19,GGGGATATCAAAACGGCCGTGAGATAGTATCTGGAGAAAACGGAGTCACCTAGTGCAG,38200 fluorescence intensity (a.u.)
20,ACCAGCGGCGGCCGTGCCGTTTGCTTGCGAACTAGCCGTGCGGAGTCACCTAGTGCAG,3190 fluorescence intensity (a.u.)
21,GACTGATATGTCAGCACTCTTTGTTTTCGTACTAGCCTGCCGGAGTCACCTAGTGCAG,4380 fluorescence intensity (a.u.)

row,Sequence,binding signal
1,TACTTATATCCATCATATCTATCTACATACTTGATCAAAACGGAGTCACCTAGTGCAG,3200 fluorescence intensity (a.u.)
2,CTAGCTACCTCTCACACGTACGTAAGGTCACACTAGCCACCGGAGTCACCTAGTGCAG,4700 fluorescence intensity (a.u.)
3,AGCCCGGGCACCGCCGCCGCCCGCAGGCGATCAGCTACACCGGAGTCACCTAGTGCAG,16600 fluorescence intensity (a.u.)
4,CTCTCTCTCGATCCCGTCTCGTCTCGTCAGTCTGCACCCGCGGAGTCACCTAGTGCAG,4540 fluorescence intensity (a.u.)
5,CTTCCTCTCGCCAGTGCCACCACAGCTCAAGCGTGATCCACGGAGTCACCTAGTGCAG,3970 fluorescence intensity (a.u.)
6,GCTCCGCCGTCTTCGCATCCGTCATCTCCGCCACCGATCCCGGAGTCACCTAGTGCAG,3600 fluorescence intensity (a.u.)
7,CCTTCGCCGCCGGCGCCGCCGTTCGCCATCACCGAGCAAGCGGAGTCACCTAGTGCAG,4800 fluorescence intensity (a.u.)
8,TGACCAAAGGCTTCATACACCCTGGCAGCAAAGAGCATTTCGGAGTCACCTAGTGCAG,3770 fluorescence intensity (a.u.)
9,CCTCGGACAACACCACAGCCTCGTCCTCATTCTCCGTGGACGGAGTCACCTAGTGCAG,3720 fluorescence intensity (a.u.)
10,CACCAGGAGTCCAGGAGGGCAGCAGTGTGACGTCGCCGGCCGGAGTCACCTAGTGCAG,4550 fluorescence intensity (a.u.)
11,GTGGATGTGAGCATCAGTCATAAATAACGAACAAGTGGCTCGGAGTCACCTAGTGCAG,22800 fluorescence intensity (a.u.)
12,GCTGCTCGTGCTCGCGGTCGTGCTGCTCCCGAGGACCGCACGGAGTCACCTAGTGCAG,16300 fluorescence intensity (a.u.)
13,AATAGTCAATTCCAGGGTTTCCTGACCCGGTGACCTAGTCCGGAGTCACCTAGTGCAG,3150 fluorescence intensity (a.u.)
14,ATGGAGAAGGGTGGTGGACCGGCTTTGATGGCAGGGGCATCGGAGTCACCTAGTGCAG,3640 fluorescence intensity (a.u.)
15,GTGTGTTCTTCGTCGTCGTCGTGTTCGTTTTGGATTTTGGCGGAGTCACCTAGTGCAG,3400 fluorescence intensity (a.u.)
16,TATTCGTCGGCTAAGGTTGCATGTCATGTAGTATTCTAAGCGGAGTCACCTAGTGCAG,3160 fluorescence intensity (a.u.)
17,AAGTTGCAACAAGTCACGATATCACATAAATTTGCATGTTCGGAGTCACCTAGTGCAG,5060 fluorescence intensity (a.u.)
18,CAAGAAATCGGTGGCCCACGCCACACATGACCGTAGTCGACGGAGTCACCTAGTGCAG,3880 fluorescence intensity (a.u.)
19,GAGCTCGTGGGATTTGGTTATTGCGACGTGTCTACACTTGCGGAGTCACCTAGTGCAG,5080 fluorescence intensity (a.u.)
20,GGCGGTCCAGCACGGCCACCACGACCGGCTCGGACGCCGTCGGAGTCACCTAGTGCAG,3270 fluorescence intensity (a.u.)
21,TTCTGGCAGCGCCAGACATGTCATACTGACATTTCCCTTCCGGAGTCACCTAGTGCAG,4960 fluorescence intensity (a.u.)

# Individual results from above:
# GCTCCGCCGTCTTCGCATCCGTCATCTCCGCCACCGATCCCGGAGTCACCTAGTGCAG – binding signal: 3600 fluorescence intensity (a.u.)
# GACTGATATGTCAGCACTCTTTGTTTTCGTACTAGCCTGCCGGAGTCACCTAGTGCAG – binding signal: 4380 fluorescence intensity (a.u.)
